Data source: PubChem BioAssay AID504786 (Drosophila RNAi Screening Center, 2011)

- Purpose: 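Fly genes required for HIF-dependent transcription when hypoxia is mimicked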 (primary screen)
- Cells: Drosophila S2 cells with a stable HIF luciferase reporter
- Reagent: long dsRNA against Drosophila genes, about 0.2 µg dsRNA per well of a 384-well plate
- Duration: three days of knock-down, then 20 h of DFO before reading
- Treatment: desferrioxamine (DFO) at 100 µM, an iron chelator that mimics hypoxia, for 20 h
- Read-out: 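HIF reporter luminescence in cells given 100 µM DFO for 20 h, using the mouse ldh-a hypoxia-response element, scored as per-plate z-scores; higher means greater loss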
- Scale: z-score: higher = stronger loss of HIF reporter signal
The deposit covers about 21,000 reagents; shown is a random part of those that have a named target and a result. 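Primary screen; positive scores mean lost reporter signal, so the sign may be inverted from the usual convention.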 Reagents against one gene are numbered here. A plus sign joins genes that one reagent is predicted to hit.

| Gene | dsRNA no. | z-score, replicate 1 | z-score, replicate 2 | z-score, replicate 3 | z-score, replicate 4 |
| --- | --- | --- | --- | --- | --- |
| Cyp12e1 (GeneID 41272) | 1 | -0.2 | -0.3 | – | – |
| CG17597 (GeneID 35140) | 1 | -0.3 | -0.3 | – | – |
| VhaAC45RP (GeneID 318563) | 1 | -0.8 | -0.2 | – | – |
| CG4294 (GeneID 37579) | 1 | 0 | 0.2 | – | – |
| CG10274 (GeneID 38716) | 1 | -0.1 | -0.2 | – | – |
| Ttc1 (GeneID 41993) | 1 | -0.2 | 0.1 | – | – |
| Ugt49C1 (GeneID 37421) | 1 | -0.3 | -0.4 | – | – |
| Vha68-1 (GeneID 45668) | 1 | -0.3 | -0.9 | – | – |
| CG5381 (GeneID 34389) | 1 | 0.6 | 0.2 | – | – |
| BCAS2 (GeneID 43348) | 1 | -0.3 | 0.3 | – | – |
| Dscam2 (GeneID 38788) | 1 | -0.4 | -0.5 | -0.4 | -0.1 |
| Dscam2 (GeneID 38788) | 2 | -0.1 | 0.1 | – | – |
| Dscam2 (GeneID 38788) | 3 | -0.5 | -0.4 | – | – |
| Dscam2 (GeneID 38788) | 4 | -0.1 | -0.1 | – | – |
| CAH16 (GeneID 50101) | 1 | 0.1 | 0.4 | – | – |
| ect (GeneID 44135) | 1 | -0.3 | -0.7 | 0 | -0.2 |
| ect (GeneID 44135) | 2 | -0.2 | -0.5 | – | – |
| CG4476 (GeneID 39056) | 1 | -0.1 | -0.2 | – | – |
| mRpL11 (GeneID 41757) | 1 | 1.1 | 1.4 | – | – |
| Crag (GeneID 31800) | 1 | -0.4 | -0.5 | – | – |
| CG17991 (GeneID 43279) | 1 | 0.2 | 0.4 | – | – |
| Ccp84Ad (GeneID 40822) | 1 | 0.1 | 0.2 | -0.3 | 0 |
| Gyc76C + CG42637 | 1 | -0.5 | -1 | – | – |
| CG12617 (GeneID 50470) | 1 | -0.3 | 0.1 | – | – |
| CG11327 (GeneID 33940) | 1 | -0.3 | -0.3 | – | – |
| Tsp29Fa (GeneID 34211) | 1 | -0.2 | -0.3 | – | – |
| FLASH (GeneID 36455) | 1 | 0.6 | -0.3 | – | – |
| Apoltp (GeneID 34283) | 1 | -0.2 | -0.7 | – | – |
| CG32631 (GeneID 32311) | 1 | -0.1 | -0.5 | – | – |
| dimm (GeneID 35404) | 1 | -0.2 | -0.3 | – | – |
| eIF4G2 (GeneID 42819) | 1 | -0.1 | -0.4 | – | – |
| Rab30 (GeneID 33988) | 1 | -0.4 | -0.4 | – | – |
| Gnmt (GeneID 41561) | 1 | -0.4 | -0.3 | – | – |
| w (GeneID 31271) | 1 | -0.4 | 0 | – | – |
| w (GeneID 31271) | 2 | -0.1 | -0.4 | – | – |
| CG8833 (GeneID 39535) | 1 | -0.3 | -0.2 | – | – |
| Ing3 (GeneID 32853) | 1 | -0.3 | -0.4 | 1.2 | -0.1 |
| LeuRS-m (GeneID 38581) | 1 | -0.4 | -0.1 | – | – |
| CG5561 (GeneID 33321) | 1 | -0.1 | -0.3 | – | – |
| Orc6 (GeneID 36017) | 1 | -0.2 | 0 | – | – |
| slmo + CG34179 | 1 | 0 | -0.3 | – | – |
| Kebab (GeneID 48440) | 1 | -0.2 | -0.4 | – | – |
| AANATL7 (GeneID 31236) | 1 | -0.2 | 0 | – | – |
| CG15143 (GeneID 35062) | 1 | -0.2 | -1 | – | – |
| kl-3 (retired record) (GeneID 5740653) | 1 | 0.2 | -0.1 | – | – |
| kl-3 (retired record) (GeneID 5740653) | 2 | -0.2 | -0.5 | – | – |
| kl-3 (retired record) (GeneID 5740653) | 3 | 0.4 | -0.1 | – | – |
| CG7744 (GeneID 37239) | 1 | -0.2 | 0.2 | – | – |
| CG34057 (GeneID 3885645) | 1 | -0.3 | -0.3 | – | – |
| JYalpha (GeneID 5740846) | 1 | -0.3 | -0.4 | – | – |
| Smvt (GeneID 43744) | 1 | -0.3 | 0.1 | – | – |
| CG33673 (GeneID 3772423) | 1 | -0.5 | -0.1 | – | – |
| AkhR (GeneID 33942) | 1 | -0.3 | -0.4 | – | – |
| CG8087 (GeneID 41764) | 1 | -0.3 | -0.5 | – | – |
| Klp54D (GeneID 47216) | 1 | 0 | 0 | – | – |
| Rgl (GeneID 44115) | 1 | -0.3 | -0.2 | – | – |
| Hand (GeneID 34379) | 1 | -0.2 | -0.4 | – | – |
| Fkbp39 (GeneID 41860) | 1 | -0.3 | -0.6 | – | – |
| CG6845 (GeneID 38019) | 1 | -0.2 | -0.2 | – | – |
| CAH9 (GeneID 43264) | 1 | -0.2 | -0.3 | – | – |
| dgt5 (GeneID 36364) | 1 | -0.2 | -0.3 | – | – |
| CG11593 (GeneID 38477) | 1 | -0.4 | -0.3 | – | – |
| CG12395 (GeneID 32571) | 1 | -0.4 | -0.8 | – | – |
| Su(P) (GeneID 39856) | 1 | -0.2 | -0.9 | – | – |
| mus81 (GeneID 31044) | 1 | -0.3 | -0.8 | – | – |
| mus81 (GeneID 31044) | 2 | -0.3 | -0.1 | – | – |
| CSN7 (GeneID 35816) | 1 | 2 | 2.5 | – | – |
| CSN7 (GeneID 35816) | 2 | 1.8 | 1.7 | – | – |
| CG4995 (GeneID 34390) | 1 | -0.4 | -0.6 | – | – |
| Orcokinin (GeneID 37806) | 1 | -0.4 | -0.7 | – | – |
| CG10184 (GeneID 42783) | 1 | -0.3 | -0.3 | – | – |
| Alp6 (GeneID 35981) | 1 | -0.4 | 1.4 | – | – |
| CG13627 (GeneID 42941) | 1 | -0.5 | -0.5 | – | – |
| CG5674 (GeneID 35072) | 1 | -0.2 | 2.5 | – | – |
| CG7025 (GeneID 34042) | 1 | 0.1 | -0.6 | – | – |
| CG7824 (GeneID 43530) | 1 | -0.4 | 0 | – | – |
| CG15130 (GeneID 35312) | 1 | -0.3 | -0.9 | – | – |
| COX5BL (GeneID 33919) | 1 | -0.3 | -0.5 | – | – |
| Nepl6 (GeneID 33893) | 1 | -0.4 | 0 | – | – |
| Su(var)3-3 (GeneID 40217) | 1 | -0.2 | 0.1 | – | – |
| CG9162 (retired record) (GeneID 33860) | 1 | -0.3 | -0.4 | – | – |
| Urod (GeneID 35986) | 1 | 0.1 | 0.1 | – | – |
| scb (GeneID 36692) | 1 | 0 | -0.1 | – | – |
| scb (GeneID 36692) | 2 | -0.2 | -0.3 | – | – |

Reformatted: results already given.
Gene | dsRNA no. | z-score, replicate 1 | z-score, replicate 2 | z-score, replicate 3 | z-score, replicate 4
Rab30 (GeneID 33988) | 1 | -0.4 | -0.4 | – | –
Gnmt (GeneID 41561) | 1 | -0.4 | -0.3 | – | –
w (GeneID 31271) | 1 | -0.4 | 0 | – | –
w (GeneID 31271) | 2 | -0.1 | -0.4 | – | –
CG8833 (GeneID 39535) | 1 | -0.3 | -0.2 | – | –
Ing3 (GeneID 32853) | 1 | -0.3 | -0.4 | 1.2 | -0.1
LeuRS-m (GeneID 38581) | 1 | -0.4 | -0.1 | – | –
CG5561 (GeneID 33321) | 1 | -0.1 | -0.3 | – | –
Orc6 (GeneID 36017) | 1 | -0.2 | 0 | – | –
slmo + CG34179 | 1 | 0 | -0.3 | – | –
Kebab (GeneID 48440) | 1 | -0.2 | -0.4 | – | –
AANATL7 (GeneID 31236) | 1 | -0.2 | 0 | – | –
